# Measurements as given in publication PMC7446885.
# B1: TOPLESS (TPL) of Arabidopsis, yeast two-hybrid fusion (protein, UniProt Q94AI7 1-1131)
# chain: MSSLSRELVFLILQFLDEEKFKETVHKLEQESGFFFNMKYFEDEVHNGNWDEVEKYLSGFTKVDDNRYSMKIFFEIRKQKYLEALDKHDRPKAVDILVKDLKVFSTFNEELFKEITQLLTLENFRENEQLSKYGDTKSARAIMLVELKKLIEANPLFRDKLQFPTLRNSRLRTLINQSLNWQHQLCKNPRPNPDIKTLFVDHSCGPPNGARAPSPVNNPLLGGIPKAGGFPPLGAHGPFQPTASPVPTPLAGWMSSPSSVPHPAVSAGAIALGGPSIPAALKHPRTPPTNASLDYPSADSEHVSKRTRPMGISDEVNLGVNMLPMSFSGQAHGHSPAFKAPDDLPKTVARTLSQGSSPMSMDFHPIKQTLLLVGTNVGDIGLWEVGSRERLVQKTFKVWDLSKCSMPLQAALVKEPVVSVNRVIWSPDGSLFGVAYSRHIVQLYSYHGGEDMRQHLEIDAHVGGVNDISFSTPNKQLCVITCGDDKTIKVWDAATGVKRHTFEGHEAPVYSVCPHYKENIQFIFSTALDGKIKAWLYDNMGSRVDYDAPGRWCTTMAYSADGTRLFSCGTSKDGESFIVEWNESEGAVKRTYQGFHKRSLGVVQFDTTKNRYLAAGDDFSIKFWDMDAVQLLTAIDGDGGLQASPRIRFNKEGSLLAVSGNENVIKIMANSDGLRLLHTFENISSESSKPAINSIAAAAAAAATSAGHADRSANVVSIQGMNGDSRNMVDVKPVITEESNDKSKIWKLTEVSEPSQCRSLRLPENLRVAKISRLIFTNSGNAILALASNAIHLLWKWQRNERNATGKATASLPPQQWQPASGILMTNDVAETNPEEAVPCFALSKNDSYVMSASGGKISLFNMMTFKTMATFMPPPPAATFLAFHPQDNNIIAIGMDDSTIQIYNVRVDEVKSKLKGHSKRITGLAFSNVLNVLVSSGADAQLCVWNTDGWEKQRSKVLPLPQGRPNSAPSDTRVQFHQDQAHFLVVHETQLAIYETTKLECMKQWAVRESLAPITHATFSCDSQLVYASFMDATVCVFSSANLRLRCRVNPSAYLPASLSNSNVHPLVIAAHPQEPNMFAVGLSDGGVHIFEPLESEGKWGVAPPAENGSASGAPTAPSVGASASDQPQR
# B2: TPL-HA (protein, UniProt Q94AI7 1-1131)
# chain: B1 chain
# B3: TPLΔCTLH (Δ25–91), yeast two-hybrid fusion (protein, UniProt Q94AI7)
# chain: MSSLSRELVFLILQFLDEEKFKETKAVDILVKDLKVFSTFNEELFKEITQLLTLENFRENEQLSKYGDTKSARAIMLVELKKLIEANPLFRDKLQFPTLRNSRLRTLINQSLNWQHQLCKNPRPNPDIKTLFVDHSCGPPNGARAPSPVNNPLLGGIPKAGGFPPLGAHGPFQPTASPVPTPLAGWMSSPSSVPHPAVSAGAIALGGPSIPAALKHPRTPPTNASLDYPSADSEHVSKRTRPMGISDEVNLGVNMLPMSFSGQAHGHSPAFKAPDDLPKTVARTLSQGSSPMSMDFHPIKQTLLLVGTNVGDIGLWEVGSRERLVQKTFKVWDLSKCSMPLQAALVKEPVVSVNRVIWSPDGSLFGVAYSRHIVQLYSYHGGEDMRQHLEIDAHVGGVNDISFSTPNKQLCVITCGDDKTIKVWDAATGVKRHTFEGHEAPVYSVCPHYKENIQFIFSTALDGKIKAWLYDNMGSRVDYDAPGRWCTTMAYSADGTRLFSCGTSKDGESFIVEWNESEGAVKRTYQGFHKRSLGVVQFDTTKNRYLAAGDDFSIKFWDMDAVQLLTAIDGDGGLQASPRIRFNKEGSLLAVSGNENVIKIMANSDGLRLLHTFENISSESSKPAINSIAAAAAAAATSAGHADRSANVVSIQGMNGDSRNMVDVKPVITEESNDKSKIWKLTEVSEPSQCRSLRLPENLRVAKISRLIFTNSGNAILALASNAIHLLWKWQRNERNATGKATASLPPQQWQPASGILMTNDVAETNPEEAVPCFALSKNDSYVMSASGGKISLFNMMTFKTMATFMPPPPAATFLAFHPQDNNIIAIGMDDSTIQIYNVRVDEVKSKLKGHSKRITGLAFSNVLNVLVSSGADAQLCVWNTDGWEKQRSKVLPLPQGRPNSAPSDTRVQFHQDQAHFLVVHETQLAIYETTKLECMKQWAVRESLAPITHATFSCDSQLVYASFMDATVCVFSSANLRLRCRVNPSAYLPASLSNSNVHPLVIAAHPQEPNMFAVGLSDGGVHIFEPLESEGKWGVAPPAENGSASGAPTAPSVGASASDQPQR
# B4: TPLΔCTLH:HA (protein, UniProt Q94AI7)
# chain: B3 chain
# How the values were obtained:
# [1] = target: RxL21ΔN (Δ1–36), yeast two-hybrid fusion (Hyaloperonospora arabidopsidis); test: two-hybrid; Gal4 AD-X (yeast Y8800) and DB-X (Y8930) fusions mated; growth on SC media lacking Leu, Trp and His (3AT for stringency) or also Ade; tested in both directions
# [2] = target: RxL21 with Leu389 mutated to Ala, yeast two-hybrid fusion (Hyaloperonospora arabidopsidis); test: as above
# [3] = target: HaRxL21 (RxL21), yeast two-hybrid fusion (Hyaloperonospora arabidopsidis); test: as above
# [4] = target: RxL21 with Leu389 mutated to Ile, yeast two-hybrid fusion (Hyaloperonospora arabidopsidis); test: as above
# [5] = target: Myc-RxL21 (Hyaloperonospora arabidopsidis); test: co-IP; transient co-expression in N. benthamiana leaves, RxL21 induced with 30 uM estradiol; sonicated nuclear lysate (10 mM Tris pH 7.5, 150 mM NaCl, 0.5% Igepal, 4 C); anti-c-myc magnetic microbeads, blot with anti-HA
Binder,binding [1],binding [2],binding [3],binding [4],binding [5]
B1,binds,no binding,binds,no binding,
B2,,,,,binds
B3,,,no binding,,
B4,,,,,no binding

# No constants are given. Whether binding was seen depends on the method and setting. For some of these results: A result given as binding can be weak or reduced; the word gives no strength. Where a sequence is shown, tags or fusion partners need not be part of it. For some of these results: Binding seen in cells or lysates may run through a third protein.
